Laboratory results: the supplement of paper PMC10849652
The list shows a part of the results.

Amino acid sequences for entries named in this document (tags omitted). A change or cut given only in a name is not applied to a line headed by its entry.
UniProt Q9Y5Q8: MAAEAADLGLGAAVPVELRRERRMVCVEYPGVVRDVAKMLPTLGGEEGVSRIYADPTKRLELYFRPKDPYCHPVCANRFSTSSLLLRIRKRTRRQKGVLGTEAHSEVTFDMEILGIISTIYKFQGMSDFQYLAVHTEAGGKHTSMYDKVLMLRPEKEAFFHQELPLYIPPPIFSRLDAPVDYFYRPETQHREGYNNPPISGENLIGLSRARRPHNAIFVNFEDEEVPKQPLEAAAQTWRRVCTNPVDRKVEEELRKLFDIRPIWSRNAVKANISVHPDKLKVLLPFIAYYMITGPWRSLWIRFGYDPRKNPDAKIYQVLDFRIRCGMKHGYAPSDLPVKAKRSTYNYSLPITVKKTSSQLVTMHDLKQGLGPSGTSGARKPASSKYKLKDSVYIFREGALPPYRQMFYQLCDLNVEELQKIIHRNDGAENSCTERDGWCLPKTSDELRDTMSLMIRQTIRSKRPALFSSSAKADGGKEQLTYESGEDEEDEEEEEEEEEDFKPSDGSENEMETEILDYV
UniProt Q7Z4V5: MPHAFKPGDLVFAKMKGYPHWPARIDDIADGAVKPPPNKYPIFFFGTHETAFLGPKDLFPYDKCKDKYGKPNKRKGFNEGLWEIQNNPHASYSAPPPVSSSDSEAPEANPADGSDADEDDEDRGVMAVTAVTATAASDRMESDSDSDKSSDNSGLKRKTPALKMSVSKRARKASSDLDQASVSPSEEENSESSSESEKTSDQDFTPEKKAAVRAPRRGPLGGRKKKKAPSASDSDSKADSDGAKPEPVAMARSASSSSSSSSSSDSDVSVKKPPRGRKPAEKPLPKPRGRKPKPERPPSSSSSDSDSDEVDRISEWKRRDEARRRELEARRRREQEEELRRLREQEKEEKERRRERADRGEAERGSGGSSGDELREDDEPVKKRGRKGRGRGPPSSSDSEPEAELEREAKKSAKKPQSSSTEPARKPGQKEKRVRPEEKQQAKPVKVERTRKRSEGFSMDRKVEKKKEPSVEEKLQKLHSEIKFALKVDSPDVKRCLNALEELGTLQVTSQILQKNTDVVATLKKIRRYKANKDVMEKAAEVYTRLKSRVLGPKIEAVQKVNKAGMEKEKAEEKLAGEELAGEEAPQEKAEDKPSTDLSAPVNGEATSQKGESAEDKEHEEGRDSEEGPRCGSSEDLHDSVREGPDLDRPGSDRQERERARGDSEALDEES
UniProt Q92759: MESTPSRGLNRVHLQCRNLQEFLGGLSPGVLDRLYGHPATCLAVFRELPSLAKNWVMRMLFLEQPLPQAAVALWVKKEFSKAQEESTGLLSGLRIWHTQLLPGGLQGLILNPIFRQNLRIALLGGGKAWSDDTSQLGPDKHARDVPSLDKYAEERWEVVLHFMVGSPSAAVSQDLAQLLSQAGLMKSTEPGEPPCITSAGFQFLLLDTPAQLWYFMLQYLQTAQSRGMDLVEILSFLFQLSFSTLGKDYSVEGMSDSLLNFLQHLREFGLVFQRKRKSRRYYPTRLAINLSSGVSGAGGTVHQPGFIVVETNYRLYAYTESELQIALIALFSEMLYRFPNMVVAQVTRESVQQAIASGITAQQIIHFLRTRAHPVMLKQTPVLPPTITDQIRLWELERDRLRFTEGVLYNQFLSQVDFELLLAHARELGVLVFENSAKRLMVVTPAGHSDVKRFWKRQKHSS
UniProt P52655, whole entry, looked up: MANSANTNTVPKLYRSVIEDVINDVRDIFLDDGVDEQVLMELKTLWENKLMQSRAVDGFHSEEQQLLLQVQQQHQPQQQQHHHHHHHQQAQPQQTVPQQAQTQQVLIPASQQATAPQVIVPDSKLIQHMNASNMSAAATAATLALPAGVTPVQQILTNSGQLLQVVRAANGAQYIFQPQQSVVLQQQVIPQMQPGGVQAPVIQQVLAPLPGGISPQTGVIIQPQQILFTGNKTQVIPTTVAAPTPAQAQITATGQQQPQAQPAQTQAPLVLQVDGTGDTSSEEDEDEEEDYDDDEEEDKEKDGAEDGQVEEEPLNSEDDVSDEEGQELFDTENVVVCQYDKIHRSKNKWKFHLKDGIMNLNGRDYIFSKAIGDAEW
UniProt P56524: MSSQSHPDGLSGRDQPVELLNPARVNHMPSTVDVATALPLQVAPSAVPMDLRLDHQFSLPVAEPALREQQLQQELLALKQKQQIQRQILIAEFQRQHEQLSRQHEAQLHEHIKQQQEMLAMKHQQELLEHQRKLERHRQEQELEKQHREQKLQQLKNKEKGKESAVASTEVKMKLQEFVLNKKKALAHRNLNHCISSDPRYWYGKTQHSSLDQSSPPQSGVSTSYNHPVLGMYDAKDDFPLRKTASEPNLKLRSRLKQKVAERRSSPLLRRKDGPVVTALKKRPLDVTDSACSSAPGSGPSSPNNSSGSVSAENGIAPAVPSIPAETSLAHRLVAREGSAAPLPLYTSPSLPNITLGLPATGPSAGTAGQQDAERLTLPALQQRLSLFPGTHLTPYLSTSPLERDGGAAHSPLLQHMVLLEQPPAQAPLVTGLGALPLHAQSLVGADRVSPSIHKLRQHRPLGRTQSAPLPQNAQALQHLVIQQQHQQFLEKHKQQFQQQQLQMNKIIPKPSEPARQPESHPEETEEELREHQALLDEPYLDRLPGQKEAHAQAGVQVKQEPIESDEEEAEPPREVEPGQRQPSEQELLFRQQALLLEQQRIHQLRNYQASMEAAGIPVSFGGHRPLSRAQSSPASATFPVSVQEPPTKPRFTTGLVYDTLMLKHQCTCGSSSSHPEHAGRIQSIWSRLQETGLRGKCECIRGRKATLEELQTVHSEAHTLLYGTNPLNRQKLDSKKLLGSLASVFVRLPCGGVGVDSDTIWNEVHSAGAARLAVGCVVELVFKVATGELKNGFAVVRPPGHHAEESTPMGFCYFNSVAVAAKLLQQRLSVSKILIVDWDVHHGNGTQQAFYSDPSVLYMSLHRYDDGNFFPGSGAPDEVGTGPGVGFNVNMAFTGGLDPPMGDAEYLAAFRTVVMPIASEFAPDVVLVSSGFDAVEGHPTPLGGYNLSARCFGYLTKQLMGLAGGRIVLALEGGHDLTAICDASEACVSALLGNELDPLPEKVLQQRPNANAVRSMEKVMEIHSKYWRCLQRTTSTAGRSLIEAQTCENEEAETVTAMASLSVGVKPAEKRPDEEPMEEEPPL
UniProt O15488: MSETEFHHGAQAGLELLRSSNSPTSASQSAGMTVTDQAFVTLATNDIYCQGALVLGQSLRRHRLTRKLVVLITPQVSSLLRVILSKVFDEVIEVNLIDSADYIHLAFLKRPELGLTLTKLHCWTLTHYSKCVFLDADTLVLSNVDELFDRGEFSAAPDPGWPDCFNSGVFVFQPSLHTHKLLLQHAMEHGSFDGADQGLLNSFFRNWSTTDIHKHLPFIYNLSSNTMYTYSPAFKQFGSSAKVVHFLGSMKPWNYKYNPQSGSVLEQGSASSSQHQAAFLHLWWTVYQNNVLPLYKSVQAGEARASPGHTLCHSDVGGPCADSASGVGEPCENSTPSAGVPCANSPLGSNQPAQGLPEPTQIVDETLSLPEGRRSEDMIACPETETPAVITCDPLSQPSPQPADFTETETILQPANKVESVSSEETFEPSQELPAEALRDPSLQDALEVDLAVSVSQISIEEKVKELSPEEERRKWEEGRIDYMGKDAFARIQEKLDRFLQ
UniProt P09105: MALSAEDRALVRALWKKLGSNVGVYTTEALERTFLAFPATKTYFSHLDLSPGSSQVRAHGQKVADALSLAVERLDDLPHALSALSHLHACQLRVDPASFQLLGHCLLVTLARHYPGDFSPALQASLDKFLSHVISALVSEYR
UniProt Q9HAV7: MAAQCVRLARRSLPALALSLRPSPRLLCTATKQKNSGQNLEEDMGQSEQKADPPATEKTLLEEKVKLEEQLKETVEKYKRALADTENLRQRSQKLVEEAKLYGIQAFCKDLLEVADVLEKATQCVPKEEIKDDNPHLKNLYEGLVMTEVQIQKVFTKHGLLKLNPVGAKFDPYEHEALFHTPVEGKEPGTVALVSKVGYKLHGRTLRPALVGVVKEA
UniProt P08236: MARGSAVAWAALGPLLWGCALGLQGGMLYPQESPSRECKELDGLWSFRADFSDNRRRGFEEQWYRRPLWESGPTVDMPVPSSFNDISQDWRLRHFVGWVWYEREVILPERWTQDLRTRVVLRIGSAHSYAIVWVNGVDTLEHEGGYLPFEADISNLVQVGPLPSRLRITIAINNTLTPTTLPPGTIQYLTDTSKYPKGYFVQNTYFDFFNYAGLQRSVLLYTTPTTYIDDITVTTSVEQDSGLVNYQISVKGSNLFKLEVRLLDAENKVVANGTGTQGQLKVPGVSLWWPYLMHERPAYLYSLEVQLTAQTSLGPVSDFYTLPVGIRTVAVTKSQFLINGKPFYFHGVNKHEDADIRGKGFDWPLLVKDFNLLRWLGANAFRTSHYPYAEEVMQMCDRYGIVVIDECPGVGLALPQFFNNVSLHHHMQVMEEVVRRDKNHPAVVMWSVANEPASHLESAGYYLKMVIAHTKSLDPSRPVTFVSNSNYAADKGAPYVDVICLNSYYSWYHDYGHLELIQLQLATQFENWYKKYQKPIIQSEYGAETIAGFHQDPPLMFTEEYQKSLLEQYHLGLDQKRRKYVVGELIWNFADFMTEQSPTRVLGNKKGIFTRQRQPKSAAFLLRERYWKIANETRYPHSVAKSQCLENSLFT
UniProt Q7Z4Q2: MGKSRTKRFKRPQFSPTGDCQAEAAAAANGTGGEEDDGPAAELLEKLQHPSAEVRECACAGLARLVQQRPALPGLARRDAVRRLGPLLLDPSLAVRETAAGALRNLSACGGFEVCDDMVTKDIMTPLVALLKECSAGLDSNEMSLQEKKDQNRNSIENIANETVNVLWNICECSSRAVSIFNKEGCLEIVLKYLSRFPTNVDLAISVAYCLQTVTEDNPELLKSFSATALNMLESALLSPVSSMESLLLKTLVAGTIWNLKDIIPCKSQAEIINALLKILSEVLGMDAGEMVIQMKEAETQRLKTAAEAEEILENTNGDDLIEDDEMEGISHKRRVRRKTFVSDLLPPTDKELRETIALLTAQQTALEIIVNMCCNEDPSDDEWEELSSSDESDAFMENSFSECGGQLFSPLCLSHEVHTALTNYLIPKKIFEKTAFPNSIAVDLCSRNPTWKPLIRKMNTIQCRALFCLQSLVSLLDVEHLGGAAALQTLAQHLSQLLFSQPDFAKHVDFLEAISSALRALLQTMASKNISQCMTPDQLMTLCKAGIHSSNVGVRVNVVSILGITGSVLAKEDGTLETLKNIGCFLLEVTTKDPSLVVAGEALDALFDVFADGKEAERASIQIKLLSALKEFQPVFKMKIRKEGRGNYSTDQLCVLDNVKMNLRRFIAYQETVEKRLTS
UniProt P25098: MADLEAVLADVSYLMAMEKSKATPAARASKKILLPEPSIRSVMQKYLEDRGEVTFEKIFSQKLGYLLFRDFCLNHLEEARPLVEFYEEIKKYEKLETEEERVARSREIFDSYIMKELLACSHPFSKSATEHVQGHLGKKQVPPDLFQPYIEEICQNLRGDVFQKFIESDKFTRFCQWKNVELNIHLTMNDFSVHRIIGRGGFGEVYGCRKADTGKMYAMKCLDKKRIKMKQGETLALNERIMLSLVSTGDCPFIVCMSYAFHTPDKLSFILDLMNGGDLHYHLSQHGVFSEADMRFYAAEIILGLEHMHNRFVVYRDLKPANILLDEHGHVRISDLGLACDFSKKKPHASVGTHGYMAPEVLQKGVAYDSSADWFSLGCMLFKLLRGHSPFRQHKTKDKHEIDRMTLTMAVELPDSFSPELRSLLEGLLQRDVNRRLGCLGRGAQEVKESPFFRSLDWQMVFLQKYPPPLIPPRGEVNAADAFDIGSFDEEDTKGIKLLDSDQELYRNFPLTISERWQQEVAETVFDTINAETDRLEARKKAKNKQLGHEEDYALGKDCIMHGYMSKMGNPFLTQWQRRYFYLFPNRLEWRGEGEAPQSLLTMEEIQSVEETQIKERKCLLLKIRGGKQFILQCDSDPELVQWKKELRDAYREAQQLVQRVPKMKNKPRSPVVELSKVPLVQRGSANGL
UniProt O15379: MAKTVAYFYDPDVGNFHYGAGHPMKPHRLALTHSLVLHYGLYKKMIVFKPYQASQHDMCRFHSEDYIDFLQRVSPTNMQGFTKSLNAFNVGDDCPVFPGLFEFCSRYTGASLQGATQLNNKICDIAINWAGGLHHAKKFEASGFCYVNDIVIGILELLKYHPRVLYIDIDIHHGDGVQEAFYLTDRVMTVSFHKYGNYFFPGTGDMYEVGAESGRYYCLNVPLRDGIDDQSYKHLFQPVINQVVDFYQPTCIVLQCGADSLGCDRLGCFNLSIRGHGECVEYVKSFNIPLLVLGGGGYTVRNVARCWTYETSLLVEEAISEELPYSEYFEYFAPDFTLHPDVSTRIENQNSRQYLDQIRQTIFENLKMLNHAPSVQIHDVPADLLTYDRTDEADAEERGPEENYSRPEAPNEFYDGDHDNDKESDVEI

Columns and labels:
Assay in all cases: log2 fold change, soluble protein after heating vs DMSO (PISA); higher = thermal stabilisation; K562 lysate, 10 uM; active = over 0.2 and 3.5 SD of the protein, either way, in both replicates (recomputed)
[1] = compound: C1=CC=C(C=C1)[C@H](COC2=CC3=C(C=C2)NC(=O)N3)NC(=O)C4=CC=CN(C4=O)CC5=CC(=C(C=C5)F)F
Procedure, shortened: (§1)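 Following dounce homogenisation of K562 pellets in PBS pH 7.4 with 1 mM MgCl2, crude extract at 1 mg/mL protein was incubated for 30 min with 10 μM compound. Aliquots were then heated for 3 min over 48°C-58°C and pooled, NP-40 was added to 0.5% at 4°C, and soluble protein was recovered as the supernatant at 21,000xg for 90 min. Channel-sum-equalised TMTpro 16plex LC-MS/MS quantified this protein. Each value, from duplicates, is a log-two fold change in thermal stability relative to solvent controls.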

[2] = compound: CC1=C(SC2=C1C(=N[C@H](C3=NN=C(N32)C)CC(=O)N)C4=CC=C(C=C4)Cl)C
Procedure, shortened: as §1

[3] = compound: CC1=C2C(=CC=C1)N=C(N(C2=O)C3=CC=CC=C3C)CN4C=NC5=C(N=CN=C54)N
Procedure, shortened: as §1

[4] = compound: Cc1sc2c(c1C)C(c1ccc(Cl)cc1)=N[C@@H](CC(=O)OC(C)(C)C)c1nnc(C)n1-2
Procedure, shortened: as §1

[5] = compound: c1ccc([C@@H]2C[C@H]2NC2CCNCC2)cc1
Procedure, shortened: as §1

Measured: log2 fold change

GTF3C5 isoform 3 (UniProt Q9Y5Q8)
inactive: [1] -0.024 | [2] 0.001 | [3] 0.019 | [4] 0.056 | [5] 0.016

HADHA (UniProt P40939)
inactive: [1] 0.065 | [2] -0.006 | [3] 0.102 | [4] 0.117 | [5] -0.008

HARS2 (UniProt P49590)
inactive: [1] 0.06 | [2] -0.056 | [3] 0.04 | [4] -0.127 | [5] -0.02

GSR (UniProt P00390)
inactive: [1] -0.01 | [2] -0.025 | [3] -0.026 | [4] 0.009 | [5] 0.001

HDGFL2 isoform 2 (UniProt Q7Z4V5)
inactive: [1] 0.051 | [2] -0.014 | [3] 0.01 | [4] -0.076 | [5] -0.212

Quoted at random: 2 records from the list.
HARS2 (UniProt P49590)
inactive: [1] 0.06 | [2] -0.056 | [3] 0.04 | [4] -0.127 | [5] -0.02

HADHA (UniProt P40939)
inactive: [1] 0.065 | [2] -0.006 | [3] 0.102 | [4] 0.117 | [5] -0.008

Further entries

GSTZ1 (UniProt G3V4T6)
inactive: [1] 0.035 | [2] 0.002 | [3] -0.036 | [4] 0.062 | [5] -0.042

GTF2H4 (UniProt Q92759)
inactive: [1] -0.08 | [2] 0.044 | [3] 0.039 | [4] 0.015 | [5] 0.02

UniProt H0YHG0
inactive: [1] 0.051 | [2] 0.024 | [3] -0.011 | [4] -0.01 | [5] -0.074

HCFC1 isoform 4 (UniProt P51610)
inactive: [1] 0.014 | [2] -0.001 | [3] -0.006 | [4] -0.001 | [5] 0

HAGHL isoform 2 (UniProt Q6PII5)
inactive: [1] 0.017 | [2] 0.001 | [3] -0.035 | [4] 0.008

GTF2A1 (UniProt P52655)
inactive: [1] 0.025 | [2] -0.033 | [3] -0.01 | [4] -0.057 | [5] 0.202

HDAC4 (UniProt P56524)
inactive: [1] 0.027 | [2] 0.03 | [3] 0.036 | [4] -0.054 | [5] 0.074

GTF3C2 (UniProt Q8WUA4)
inactive: [1] -0.002 | [2] 0.039 | [3] 0.004 | [4] 0.046 | [5] -0.069

HDGFL3 (UniProt Q9Y3E1)
inactive: [1] 0.074 | [2] -0.049 | [3] -0.008 | [4] -0.013 | [5] 0.021

GTPBP10 (UniProt A4D1E9)
inactive: [1] 0.071 | [2] -0.017 | [3] -0.007 | [4] 0.062 | [5] 0.005

GYG2 (UniProt O15488)
inactive: [1] 0.031 | [2] 0.003 | [3] 0.036 | [4] -0.119

GRK6 isoform 2 (UniProt P43250)
inactive: [1] 0.086 | [2] -0.034 | [3] -0.135 | [4] 0.084 | [5] -0.018

HBQ1 (UniProt P09105)
inactive: [1] 0.073 | [2] -0.03 | [3] -0.046 | [4] -0.055 | [5] 0.084

GRPEL1 (UniProt Q9HAV7)
inactive: [1] -0.009 | [2] 0.014 | [3] 0.015 | [4] -0.015 | [5] -0.011

H3C1 (UniProt P68431)
inactive: [1] 0.328 | [2] -0.102

GUSB (UniProt P08236)
inactive: [1] 0.035 | [2] 0.022 | [3] 0.016 | [4] -0.051 | [5] -0.313

HEATR3 (UniProt Q7Z4Q2)
inactive: [1] -0.101 | [2] 0.022 | [3] 0.008 | [4] -0.024 | [5] 0.028

GRK2 (UniProt P25098)
inactive: [1] -0.05 | [2] 0.009 | [3] 0.03 | [4] 0.007 | [5] -0.008

HDAC3 (UniProt O15379)
inactive: [1] -0.035 | [2] 0.009 | [3] 0.006 | [4] 0.044 | [5] 0.014

GTF2B (UniProt Q00403)
inactive: [1] -0.049 | [2] 0.012 | [3] -0.006 | [4] -0.027 | [5] 0.017
